One test has as its system Bacillus subtilis. The test is described as follows: Antibacterial activity against Bacillus subtilis ATCC 6051 at 20 ug/disk by agar disk diffusion method. The class given is functional, organism-based.
Another test concerns Staphylococcus aureus. The test can be described thus: Antibacterial activity against Staphylococcus aureus ATCC 29213 at 20 ug/disk by agar disk diffusion method. The class given is functional, organism-based.

Regarding GENTAMICIN, the inhibition zone (IZ) in the test on Bacillus subtilis and in the test on Staphylococcus aureus was 13 mm in each case.

The record behind these values is ChEMBL document CHEMBL3576777, “Hypocoprins A-C: new sesquiterpenoids from the coprophilous fungus Hypocopra rostrata” (J Nat Prod, 2015).
